Experimental data: patent publication US8318741B2, “Therapeutic compositions and methods” (The Texas A & M University System, priority 2005, dated 2012)
For part of these data: At least one compound was matched to its structure with a doubt left. Some entries share one result that the patent states for a list of compounds.

What was measured:
[1] = test system: ocular hypertensive rabbit eyes; experiment: Choroidal blood flow in ocular hypertensive rabbit eyes (colored microspheres); type: in vivo, New Zealand white rabbits; details: 50 μl, 1% topically
[2] = test system: IL-1 induced uveitis; experiment: Interleukin-1 induced uveitis; type: in vivo, Sprague-Dawley rats; details: dose not given

| Structure (SMILES) | Time after administration over which the action on choroidal blood flow lasted [1] | Inhibition of IL-1 induced uveitis by natural products [2] |
| --- | --- | --- |
| CONC(=O)c1ccn([N+](=O)[O-])n1 [DN-6, N-methoxy-1-nitro-1H-pyrazole-3-carboxamide] | more than 3 hrs |  |
| O=C(O)c1ccn([N+](=O)[O-])n1 [DN-7, 1-nitro-1H-pyrazole-3-carboxylic acid] | more than 3 hrs |  |
| COc1ccc2cc1Oc1ccc(cc1)C[C@H]1c3cc(c(OC)cc3CCN1C)Oc1c(OC)c(OC)cc3c1[C@H](C2)N(C)CC3 [tetrandrine] |  | slightly less potent than osthol |
